{"source": "PubChem BioAssay AID485314", "about": "(National Center for Advancing Translational Sciences (NCATS), 2010)", "note": "About 4,500 (1.3%) of roughly 340,000 compounds were called active. This list was built around the results that the source calls inconclusive (neither active nor inactive); the mix of calls is not that of the screen. Calls follow the shape of the dose curve; as a rule, active = well fitted inhibition curve with a large enough effect; inconclusive = small, poorly fitted or top-dose-only effect, or another doubt; inactive = no such curve, though single readings can be large or run the other way. Potencies beside an inconclusive call are fits to weak or partial responses and may not hold up. % is scaled to controls: 0 for no effect and ±100 for the full control effect; potency is read from the fitted curve at half-maximal effect."}
{"target": "DNA polymerase beta (Homo sapiens) (UniProt P06746)", "experiment": "qHTS Assay for Inhibitors of DNA Polymerase Beta", "conditions": "Pol beta primer extension/strand displacement, fluorescence kinetic; activity change, negative = inhibition: at 114 µM (top of the series)", "summary_of_the_method": "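10 nM enzyme + cpd, 15 min RT; start with substrate 50 nM final; read 0 min and after 10 min RT. Corrected, normalized data; 4-parameter Hill curve fit.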"}
{"smiles": "O=C(Nc1nnc(SCC(=O)N2CCOCC2)s1)C1CC(=O)N(c2ccc(F)cc2)C1", "note": "(configuration not stated)", "Potency": "inconclusive: 2.51 µM [inhibitor, full curve, poor fit]"}
{"smiles": "Cc1nc(NC(=O)C(Cl)Cl)sc1C(=O)N(C)C", "Potency": "active: 35.5 µM"}
{"smiles": "COc1ccc(N=C2NC(=O)/C(=C\\C=C\\c3ccco3)S2)cc1", "Potency": "active: 10 µM"}
{"smiles": "CCN1c2ccccc2-c2nc3ccccc3n2C1c1ccco1", "note": "(configuration not stated)", "Potency": "inconclusive: 39.8 µM [inhibitor, single point]"}
{"smiles": "Cc1ccc(CC(=O)N2CCN(C(=O)C3CCCO3)CC2)cc1", "note": "(configuration not stated)", "Potency": "inconclusive: 2.51 µM [inhibitor, partial curve, poor fit]"}
{"smiles": "CCc1ccc(NS(=O)(=O)c2ccc3[nH]cc(C(=O)N4CCCCCC4)c(=O)c3c2)cc1", "Potency": "inconclusive: 25.1 µM [inhibitor, full curve]"}
{"smiles": "COc1ccc(N(C(=O)c2ccc(C)cc2)S(=O)(=O)c2ccc(Cl)cc2)cc1", "activity change, negative = inhibition": "inconclusive: -54.7% [inhibitor]"}
{"smiles": "COc1ccc(-c2nn(-c3ccccc3)cc2/C=N/Nc2ccc(Cl)c(C(=O)O)c2)cc1OC", "activity change, negative = inhibition": "inconclusive: -31.3% [inhibitor]"}
{"smiles": "COc1cc(/C=C(\\C#N)C(=O)Nc2ccccc2)ccc1OCCN1CCOCC1", "Potency": "inactive"}
{"smiles": "O=C(CN(C(=O)c1csnn1)c1ccc(F)c(Cl)c1)NCc1ccc2c(c1)OCO2", "Potency": "inactive"}
{"smiles": "O=C(Nc1ccc(S(=O)(=O)Nc2ncccn2)cc1)c1cccnc1", "Potency": "inconclusive: 89.1 µM [inhibitor, single point]"}
{"smiles": "CCn1c(=NC(=O)c2ccc(N3C(=O)CCC3=O)cc2)sc2c(OC)ccc(OC)c21", "Potency": "active: 10 µM"}
{"smiles": "O=C1c2oc3ccccc3c(=O)c2C(c2cccc(O)c2)N1Cc1ccc(F)cc1", "note": "(configuration not stated)", "Potency": "inactive"}
{"smiles": "CC1(C)CC(=O)C2=C(C1)Nc1[nH]c(=S)[nH]c(=O)c1C2c1ccccc1", "note": "(configuration not stated)", "Potency": "inactive"}
{"smiles": "Cc1cc(Br)ccc1NC(=O)CN1C(=O)c2cccnc2Sc2ccccc21", "Potency": "inconclusive: 79.4 µM [inhibitor, partial curve]"}
{"smiles": "CN1/C(=C\\C(=O)COc2ccc3c(c2)OCO3)C(C)(C)c2ccccc21", "Potency": "inconclusive: 56.2 µM [inhibitor, single point]"}
{"smiles": "CCOc1ccccc1NC(=O)c1cc2ccc3cccnc3c2[nH]1", "Potency": "inconclusive: 25.1 µM [inhibitor, single point]"}
{"smiles": "C#CCOCCOCCOCCNc1nc(N2CCN(C(=O)C(Cc3cc4ccccc4[nH]3)n3cc(C(N)C(C)CC)nn3)CC2)nc(N2CCN(C(=O)C(Cc3cc4ccccc4[nH]3)n3cc(C(N)C(C)CC)nn3)CC2)n1", "note": "(configuration not stated)", "Potency": "active: 20 µM"}
{"smiles": "CCCCc1nnc(NC(=O)CSCc2cc(=O)n3ccsc3n2)s1", "Potency": "inconclusive: 0.141 µM [inhibitor, full curve, poor fit]"}
{"smiles": "Cc1ccc(S(=O)(=O)Nc2ccc(=O)n(Cc3ccc(Cl)c(Cl)c3)c2)cc1", "Potency": "inconclusive: 39.8 µM [inhibitor, full curve, poor fit]"}
{"smiles": "CCOc1ccc(CCNC(=O)c2ccc(C)c(-n3c(C)nc4cccnc43)c2)cc1OCC", "Potency": "inactive"}
{"smiles": "CCC1(c2ccccc2)NC(=O)N(CC(=O)Nc2cccc(C#N)c2)C1=O", "note": "(configuration not stated)", "Potency": "inconclusive: 89.1 µM [inhibitor, single point]"}
{"smiles": "COc1ccc(N(CC(=O)NCCSCc2ccco2)S(=O)(=O)c2ccccc2)cc1", "Potency": "inactive"}
{"smiles": "CCOc1ccc(CNC(=O)C2Cc3cc(S(=O)(=O)N4CCCCCC4)ccc3N2C(C)=O)cc1", "note": "(configuration not stated)", "Potency": "inactive"}
{"smiles": "COc1cc(/C=C2/C(=O)c3cccc([N+](=O)[O-])c3C2=O)c(Br)cc1O", "Potency": "active: 39.8 µM"}
{"smiles": "COc1cc(/C=N/NC(=O)c2ccc3c(c2)OCO3)ccc1O", "Potency": "inconclusive: 8.91 µM [inhibitor, full curve]"}
{"smiles": "COc1ccccc1N1CCN(C(c2cccs2)C(C)NC(=O)c2ccncc2)CC1", "note": "(configuration not stated)", "Potency": "inconclusive: 89.1 µM [inhibitor, single point]"}
{"smiles": "O=C(NCc1ccccc1Cl)c1ccc(NC2=NC3CS(=O)(=O)CC3S2)cc1", "note": "(configuration not stated)", "Potency": "inconclusive: 89.1 µM [inhibitor, single point]"}
{"smiles": "CN(C)S(=O)(=O)c1cccc(-c2nn(-c3ccccc3)cc2/C=C2\\SC(=S)NC2=O)c1", "Potency": "active: 20 µM"}
{"smiles": "CC(C(=O)Nc1ccc(C(=O)O)c(O)c1)N1C(=O)/C(=C\\c2ccco2)SC1=S", "note": "(configuration not stated)", "Potency": "inconclusive: 5.62 µM [inhibitor, single point]"}
{"smiles": "Cc1nc(SCC(=O)c2cc3ccccc3oc2=O)c(C#N)c(C)c1C(=O)Nc1ccccc1", "Potency": "inconclusive: 44.7 µM [inhibitor, partial curve, poor fit]"}
{"smiles": "O=C(Nc1ccccc1C(F)(F)F)N1CCN(c2ccc3nnc(-c4ccc(F)cc4)n3n2)CC1", "Potency": "inconclusive: 89.1 µM [inhibitor, single point]"}
{"smiles": "Cc1cc(N=Nc2ccc(C)c(N=Nc3cc(C)c(N)cc3N)c2)c(N)cc1N", "activity change, negative = inhibition": "inconclusive: -32.4% [inhibitor]"}
{"smiles": "CCOc1ccc(NC(=O)C2CC(=O)N(C(C)C)C2)cc1", "note": "(configuration not stated)", "Potency": "inconclusive: 0.158 µM [inhibitor, full curve, poor fit]"}
{"smiles": "Cc1ccccc1-c1noc(-c2ccccc2OCC(=O)Nc2ccccc2[N+](=O)[O-])n1", "Potency": "inconclusive: 89.1 µM [inhibitor, single point]"}
{"smiles": "O=c1cc(NCc2ccc3c(c2)OCO3)[nH]c(=O)n1-c1ccc(Cl)cc1", "Potency": "inconclusive: 12.6 µM [inhibitor, full curve]"}
{"smiles": "Cc1ccc2c(c1)c(C)cc(=O)n2CCC(=O)O", "Potency": "active: 12.6 µM"}
{"smiles": "O=C(Nc1nc2c(s1)CCCC2)c1cc(-c2ccc3c(c2)OCO3)nc2ccccc12", "Potency": "inconclusive: 25.1 µM [inhibitor, full curve, poor fit]"}
{"smiles": "Cc1cc(/C=C2\\C(=N)N3N=C(CC(=O)N4CCOCC4)SC3=NC2=O)c(C)n1-c1ccccc1", "activity change, negative = inhibition": "inconclusive: -67.5% [inhibitor]"}
{"smiles": "CC(=O)Nc1ccc(S(=O)(=O)n2nc(C)cc2C)cc1", "Potency": "inconclusive: 0.794 µM [inhibitor, full curve, poor fit]"}
{"smiles": "Cn1c(=O)oc2cc(S(=O)(=O)Nc3ccc(O)cc3)ccc21", "Potency": "inactive"}
{"smiles": "COc1ccccc1-c1cc(C(=O)N/N=C/c2ccc(C)o2)c2ccccc2n1", "Potency": "inconclusive: 39.8 µM [inhibitor, single point]"}
